In article PMC8379256, “A xanthene derivative, DS20060511, attenuates glucose intolerance by inducing skeletal muscle-specific GLUT4 translocation in mice” (Communications Biology, 2021):
Values joined by “and” are separate entries in the source; they are usually repeats but may differ in a detail not shown here. Equal values may be shown once. This continues a long series; more values of the same kind are listed elsewhere.

Test system: C57BL/6 mice
Assay: Oral glucose tolerance test (GTT) in C57BL/6 mice: blood glucose and plasma insulin
Assay type: in vivo, mouse
Protocol: Fig. 2 Treatment with DS20060511 decreases the blood glucose levels via inducing GLUT4 translocation and increasing skeletal muscle glucose uptake. a, b Blood glucose levels after treatment with DS20060511 (30 mg kg^−1) in C57BL/6 mice that had received continued access to food (a) and mice that had been denied access to food overnight (b) (n = 8). Values shown are means ± SEM. **P < 0.01 vs. 0 min by one-way ANOVA followed by Dunnett’s test. c Blood glucose and plasma insulin levels during oral GTT in the C57BL/6 mice (n = 5–6). The mice received oral administration of vehicle or DS20060511 at the indicated dose, 15 min prior to glucose administration (1.5 g kg^−1). Values shown are means ± SEM. *P < 0.05, **P < 0.01 vs. vehicle by one-way ANOVA followed by Williams’ test. d [^3H]-2-DG uptake in the soleus muscle, gastrocnemius muscle (Gastro.), heart, and white adipose tissue (WAT) at 60 min during the intraperitoneal GTT in the C57BL/6 mice (n = 3). The mice received oral administration of vehicle or DS20060511 (30 mg kg^−1), 15 min prior to glucose administration (1 g kg^−1 glucose containing [^3H]-2-DG). […] Uncropped blots for e can be found in Supplementary Fig. 6.
Mice that had been denied access to food overnight received the indicated oral dose of DS20060511 or vehicle 15 min prior to the glucose load (1.5 g kg^−1, except for eNOS-knockout mice, which received 3.0 g kg^−1). Then, after the oral glucose load, the blood glucose levels were measured using Glutest Every in samples obtained from the tail vein at the indicated timepoints. Plasma insulin concentrations were also measured with an ELISA kit (Morinaga Institute of Biological Science, Yokohama, Japan) in blood samples collected from the tail vein at the indicated timepoints.

`COc1ccc2c(C)c(C(=O)O)ccc2c1C1C2=C(CC(C)(C)CC2=O)OC2=C1C(=O)CC(C)(C)C2` [DS20060511] was tested, and the Blood glucose (3 mg/kg, 0 min) was 88 mg/dL and 105 mg/dL, the Blood glucose (3 mg/kg, 15 min) was 202 mg/dL and 267 mg/dL and the Blood glucose (3 mg/kg, 30 min) was 158 mg/dL and 204 mg/dL. For the same molecule, the Blood glucose (3 mg/kg, 60 min) was 197 mg/dL, the Blood glucose (3 mg/kg, 90 min) was 159 mg/dL and 129 mg/dL and the Blood glucose (3 mg/kg, 120 min) was 118 mg/dL and 127 mg/dL. The Blood glucose (3 mg/kg, -15 min) was 67 mg/dL and 77 mg/dL, the Blood glucose (10 mg/kg, 0 min) was 101 mg/dL and 103 mg/dL and 104 mg/dL and 97 mg/dL and 91 mg/dL and 92 mg/dL and the Blood glucose (10 mg/kg, 15 min) was 197 mg/dL and 196 mg/dL and 212 mg/dL and 203 mg/dL and 169 mg/dL and 187 mg/dL. For the same molecule, the Blood glucose (10 mg/kg, 30 min) was 181 mg/dL and 156 mg/dL and 144 mg/dL and 126 mg/dL and 123 mg/dL and 115 mg/dL, the Blood glucose (10 mg/kg, 60 min) was 124 mg/dL and 154 mg/dL and 150 mg/dL and 115 mg/dL and 174 mg/dL and 121 mg/dL and the Blood glucose (10 mg/kg, 90 min) was 110 mg/dL and 123 mg/dL and 124 mg/dL and 107 mg/dL and 112 mg/dL and 111 mg/dL. The Blood glucose (10 mg/kg, 120 min) was 99 mg/dL and 107 mg/dL and 117 mg/dL and 105 mg/dL and 118 mg/dL and 121 mg/dL, the Blood glucose (10 mg/kg, -15 min) was 82 mg/dL and 94 mg/dL and 75 mg/dL and 81 mg/dL and 79 mg/dL and the Blood glucose (30 mg/kg, 0 min) was 87 mg/dL and 73 mg/dL and 77 mg/dL and 78 mg/dL and 76 mg/dL. For the same molecule, the Blood glucose (30 mg/kg, 15 min) was 188 mg/dL and 134 mg/dL and 156 mg/dL and 142 mg/dL and 132 mg/dL, the Blood glucose (30 mg/kg, 30 min) was 130 mg/dL and 118 mg/dL and 107 mg/dL and 114 mg/dL and 104 mg/dL and the Blood glucose (30 mg/kg, 60 min) was 95 mg/dL and 84 mg/dL and 94 mg/dL and 102 mg/dL and 121 mg/dL. For the same molecule, the Blood glucose (30 mg/kg, 90 min) was 125 mg/dL and 68 mg/dL and 84 mg/dL and 105 mg/dL, the Blood glucose (30 mg/kg, 120 min) was 80 mg/dL and 75 mg/dL and 89 mg/dL and 99 mg/dL and 103 mg/dL and the Blood glucose (30 mg/kg, -15 min) was 80 mg/dL and 76 mg/dL and 78 mg/dL and 75 mg/dL and 93 mg/dL.
